Consider four molecules from publication PMC5923425, “Structural analysis of human ARS2 as a platform for co-transcriptional RNA sorting” (Nature Communications, 2018).

The chains behind the UniProt entries cited, without tags or fusion partners.
UniProt Q09161: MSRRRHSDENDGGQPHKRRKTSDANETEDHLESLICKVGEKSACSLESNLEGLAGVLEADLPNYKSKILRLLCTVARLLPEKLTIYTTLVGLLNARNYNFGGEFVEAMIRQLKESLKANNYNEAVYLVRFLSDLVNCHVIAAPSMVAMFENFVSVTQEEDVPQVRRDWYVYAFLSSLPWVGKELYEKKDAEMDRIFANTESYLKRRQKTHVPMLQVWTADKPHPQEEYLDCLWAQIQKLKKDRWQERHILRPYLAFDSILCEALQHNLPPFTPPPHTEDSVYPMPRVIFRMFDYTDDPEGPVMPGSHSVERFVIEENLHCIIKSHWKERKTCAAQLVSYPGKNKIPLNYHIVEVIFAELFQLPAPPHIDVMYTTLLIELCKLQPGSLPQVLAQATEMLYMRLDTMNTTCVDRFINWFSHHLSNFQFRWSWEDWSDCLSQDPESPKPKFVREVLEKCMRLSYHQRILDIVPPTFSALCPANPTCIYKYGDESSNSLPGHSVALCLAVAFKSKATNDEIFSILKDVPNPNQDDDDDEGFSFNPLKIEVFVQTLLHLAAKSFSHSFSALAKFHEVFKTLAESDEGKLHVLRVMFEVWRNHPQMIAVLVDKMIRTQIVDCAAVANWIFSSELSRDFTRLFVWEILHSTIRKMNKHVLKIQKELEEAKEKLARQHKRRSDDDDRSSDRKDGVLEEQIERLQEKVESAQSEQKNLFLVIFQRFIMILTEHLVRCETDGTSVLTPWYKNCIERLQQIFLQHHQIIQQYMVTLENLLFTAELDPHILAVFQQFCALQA
UniProt Q9H814: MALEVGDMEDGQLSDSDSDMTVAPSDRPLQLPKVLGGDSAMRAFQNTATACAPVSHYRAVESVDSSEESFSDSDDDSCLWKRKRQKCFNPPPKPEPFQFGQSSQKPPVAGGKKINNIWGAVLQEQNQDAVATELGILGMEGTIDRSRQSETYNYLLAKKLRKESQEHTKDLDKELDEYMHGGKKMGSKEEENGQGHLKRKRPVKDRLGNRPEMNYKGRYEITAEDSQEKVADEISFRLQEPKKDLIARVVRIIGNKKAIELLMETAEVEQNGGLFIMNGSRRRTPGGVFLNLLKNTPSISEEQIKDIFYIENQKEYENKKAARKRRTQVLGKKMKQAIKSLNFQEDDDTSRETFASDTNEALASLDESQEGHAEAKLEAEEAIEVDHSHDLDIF

Test in all cases: affinity purification with mass spectrometry; EGFP-tagged ARS2 constructs expressed in HEK 293T/17, lysis in 20 mM HEPES pH 7.4, 120 mM NaCl, 0.1% Triton X-100 with RNase H, GFP-Trap beads, TMT labelling, LC–MS/MS; controls EGFP and pcDNA3.1
The target in test [1] is T1, EGFP–ARS2 wt (human) (UniProt Q9BXP5).
T1 sequence: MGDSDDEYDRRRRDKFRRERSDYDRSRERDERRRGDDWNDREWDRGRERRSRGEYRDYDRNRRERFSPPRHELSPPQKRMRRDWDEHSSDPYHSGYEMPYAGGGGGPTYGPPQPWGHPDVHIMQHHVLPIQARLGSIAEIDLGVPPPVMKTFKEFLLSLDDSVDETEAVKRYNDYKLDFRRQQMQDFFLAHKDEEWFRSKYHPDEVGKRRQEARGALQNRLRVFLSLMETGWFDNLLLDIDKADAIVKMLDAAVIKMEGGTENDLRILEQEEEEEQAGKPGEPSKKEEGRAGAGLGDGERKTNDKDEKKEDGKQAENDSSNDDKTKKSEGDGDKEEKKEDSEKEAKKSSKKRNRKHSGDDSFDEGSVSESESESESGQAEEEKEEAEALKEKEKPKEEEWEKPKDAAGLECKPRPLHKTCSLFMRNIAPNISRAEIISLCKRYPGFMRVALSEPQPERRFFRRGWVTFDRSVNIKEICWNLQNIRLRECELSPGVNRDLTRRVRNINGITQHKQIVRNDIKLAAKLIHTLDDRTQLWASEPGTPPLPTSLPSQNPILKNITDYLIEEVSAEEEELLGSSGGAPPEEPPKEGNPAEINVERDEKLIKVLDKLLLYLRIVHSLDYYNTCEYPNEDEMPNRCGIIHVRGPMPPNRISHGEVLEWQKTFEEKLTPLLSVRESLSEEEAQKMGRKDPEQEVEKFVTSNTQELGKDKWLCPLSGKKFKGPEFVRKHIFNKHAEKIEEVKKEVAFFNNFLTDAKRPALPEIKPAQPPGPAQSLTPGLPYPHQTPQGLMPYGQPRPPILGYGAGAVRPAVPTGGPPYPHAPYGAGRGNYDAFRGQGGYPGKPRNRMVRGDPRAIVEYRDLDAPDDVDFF

Test [2] addresses T2, EGFP–ARS2^(K719A K722A K734A) (human) (UniProt Q9BXP5).
T2 sequence: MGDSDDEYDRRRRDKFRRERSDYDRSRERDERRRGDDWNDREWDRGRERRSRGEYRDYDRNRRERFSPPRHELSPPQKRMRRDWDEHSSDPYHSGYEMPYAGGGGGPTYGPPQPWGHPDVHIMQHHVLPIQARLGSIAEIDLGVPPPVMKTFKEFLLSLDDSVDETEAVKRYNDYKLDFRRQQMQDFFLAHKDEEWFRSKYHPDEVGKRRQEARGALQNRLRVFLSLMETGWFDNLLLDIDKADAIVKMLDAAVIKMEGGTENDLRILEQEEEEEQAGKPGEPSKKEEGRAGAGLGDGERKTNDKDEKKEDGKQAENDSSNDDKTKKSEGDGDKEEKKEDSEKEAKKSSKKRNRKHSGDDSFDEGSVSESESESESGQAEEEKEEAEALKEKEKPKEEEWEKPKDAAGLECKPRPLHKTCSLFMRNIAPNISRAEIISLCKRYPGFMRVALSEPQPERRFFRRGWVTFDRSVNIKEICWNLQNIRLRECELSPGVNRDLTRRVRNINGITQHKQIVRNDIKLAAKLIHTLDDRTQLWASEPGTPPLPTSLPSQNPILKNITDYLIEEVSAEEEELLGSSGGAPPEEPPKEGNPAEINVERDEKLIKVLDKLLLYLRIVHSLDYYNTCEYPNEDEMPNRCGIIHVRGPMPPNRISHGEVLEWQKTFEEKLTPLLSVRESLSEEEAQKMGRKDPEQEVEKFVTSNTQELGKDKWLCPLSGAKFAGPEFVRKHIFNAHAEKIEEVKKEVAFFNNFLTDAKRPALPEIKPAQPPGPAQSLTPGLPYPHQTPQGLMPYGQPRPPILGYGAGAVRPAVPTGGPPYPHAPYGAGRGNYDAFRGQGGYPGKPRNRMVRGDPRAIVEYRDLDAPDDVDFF

The target of test [3] is EGFP–ARS2^(R854A R859A F871A) (human) (UniProt Q9BXP5).
Test [4] addresses T3, EGFP–ARS2^1–845 (human) (UniProt Q9BXP5).
T3 sequence: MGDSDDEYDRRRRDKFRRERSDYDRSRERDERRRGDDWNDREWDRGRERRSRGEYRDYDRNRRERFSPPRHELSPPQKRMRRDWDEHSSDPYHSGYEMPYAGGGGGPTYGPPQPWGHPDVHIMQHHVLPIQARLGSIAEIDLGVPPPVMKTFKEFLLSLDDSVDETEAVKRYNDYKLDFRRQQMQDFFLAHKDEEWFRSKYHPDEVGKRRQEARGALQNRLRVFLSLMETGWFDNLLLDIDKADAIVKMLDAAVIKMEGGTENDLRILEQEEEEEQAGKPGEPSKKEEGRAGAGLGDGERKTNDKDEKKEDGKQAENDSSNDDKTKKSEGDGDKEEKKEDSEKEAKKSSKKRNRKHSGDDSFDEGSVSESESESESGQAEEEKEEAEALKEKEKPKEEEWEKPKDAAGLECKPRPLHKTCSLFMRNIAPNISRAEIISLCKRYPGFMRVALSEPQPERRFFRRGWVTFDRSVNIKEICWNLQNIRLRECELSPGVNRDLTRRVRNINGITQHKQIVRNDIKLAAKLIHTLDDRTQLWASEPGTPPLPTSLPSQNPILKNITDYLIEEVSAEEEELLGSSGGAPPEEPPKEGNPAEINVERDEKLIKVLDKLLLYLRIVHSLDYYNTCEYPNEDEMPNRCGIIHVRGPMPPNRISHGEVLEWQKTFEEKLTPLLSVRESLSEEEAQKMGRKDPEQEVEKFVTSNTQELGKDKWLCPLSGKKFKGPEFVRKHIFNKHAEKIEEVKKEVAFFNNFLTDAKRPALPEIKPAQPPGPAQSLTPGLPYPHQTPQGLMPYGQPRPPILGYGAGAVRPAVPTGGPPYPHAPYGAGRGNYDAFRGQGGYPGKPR

Test [5] concerns the target EGFP–ARS2^Δ692–743GSG (human) (UniProt Q9BXP5).

These are yes or no findings as the source states them, for the method shown. Binding seen in cells or lysates may run through a third protein. These calls come from enrichment with a bait or labelling near it, and not all partners need be listed. For part of these data: A no says only that the protein was not detected with the bait. For part of these data: Tags and fused reporters may be left off the sequences shown.

For “CBP80 (NCBP1) (endogenous) (from UniProt Q09161 1-790)”, the binding entry in test [1] is listed as “binds”; in test [2], “binds”; in test [3] it was “no binding”; in test [4] it was “no binding”; in test [5], “binds”.
“PHAX (endogenous) (from UniProt Q9H814 1-394)”: the binding entry in test [1] was “binds”; in test [2] it was “no binding”; in test [3], “no binding”; in test [4] it was “no binding”; in test [5], “no binding”.

B1: THOC6 (protein, UniProt Q86W42 1-341)
chain: MERAVPLAVPLGQTEVFQALQRLHMTIFSQSVSPCGKFLAAGNNYGQIAIFSLSSALSSEAKEESKKPVVTFQAHDGPVYSMVSTDRHLLSAGDGEVKAWLWAEMLKKGCKELWRRQPPYRTSLEVPEINALLLVPKENSLILAGGDCQLHTMDLETGTFTRVLRGHTDYIHCLALRERSPEVLSGGEDGAVRLWDLRTAKEVQTIEVYKHEECSRPHNGRWIGCLATDSDWMVCGGGPALTLWHLRSSTPTTIFPIRAPQKHVTFYQDLILSAGQGRCVNQWQLSGELKAQVPGSSPGLLSLSLNQQPAAPECKVLTAAGNSCRVDVFTNLGYRAFSLSF
Regarding B1, the binding entry in test [1] is listed as “binds”.

B2: NCBP3 (endogenous) (protein, UniProt Q53F19 1-620)
chain: MAAVRGLRVSVKAEAPAGPALGLPSPEAESGVDRGEPEPMEVEEGELEIVPVRRSLKELIPDTSRRYENKAGSFITGIDVTSKEAIEKKEQRAKRFHFRSEVNLAQRNVALDRDMMKKAIPKVRLETIYICGVDEMSTQDVFSYFKEYPPAHIEWLDDTSCNVVWLDEMTATRALINMSSLPAQDKIRSRDASEDKSAEKRKKDKQEDSSDDDEAEEGEVEDENSSDVELDTLSQVEEESLLRNDLRPANKLAKGNRLFMRFATKDDKKELGAARRSQYYMKYGNPNYGGMKGILSNSWKRRYHSRRIQRDVIKKRALIGDDVGLTSYKHRHSGLVNVPEEPIEEEEEEEEEEEEEEEEDQDMDADDRVVVEYHEELPALKQPRERSASRRSSASSSDSDEMDYDLELKMISTPSPKKSMKMTMYADEVESQLKNIRNSMRADSVSSSNIKNRIGNKLPPEKFADVRHLLDEKRQHSRPRPPVSSTKSDIRQRLGKRPHSPEKAFSSNPVVRREPSSDVHSRLGVPRQDSKGLYADTREKKSGNLWTRLGSAPKTKEKNTKKVDHRAPGAEEDDSELQRAWGALIKEKEQSRQKKSRLDNLPSLQIEVSRESSSGSEAES
Take B2: in test [1], the binding result is listed as “binds”.
